The values below come from the supplement of paper PMC12819154, “High-throughput peptide-centric local stability assay extends protein–ligand identification to membrane proteins, tissues and bacteria” (Nature Structural & Molecular Biology, 2025).

By UniProt entry, the sequences of proteins in these tests, tags left out. Where a name states a change or a piece, a line headed by the entry shows the natural chain unless it says otherwise.
UniProt P10903: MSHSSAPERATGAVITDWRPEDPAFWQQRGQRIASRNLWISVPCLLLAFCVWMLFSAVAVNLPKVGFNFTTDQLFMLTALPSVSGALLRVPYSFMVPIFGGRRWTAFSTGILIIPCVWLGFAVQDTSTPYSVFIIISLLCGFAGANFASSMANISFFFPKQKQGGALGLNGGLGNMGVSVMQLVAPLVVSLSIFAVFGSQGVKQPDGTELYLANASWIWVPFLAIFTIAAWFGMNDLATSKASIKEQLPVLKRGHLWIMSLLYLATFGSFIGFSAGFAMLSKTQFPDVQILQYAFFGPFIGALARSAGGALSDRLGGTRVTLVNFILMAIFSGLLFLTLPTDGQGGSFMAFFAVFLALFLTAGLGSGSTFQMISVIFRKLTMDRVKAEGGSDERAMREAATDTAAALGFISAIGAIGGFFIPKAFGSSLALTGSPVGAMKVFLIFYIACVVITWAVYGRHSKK
UniProt P15078: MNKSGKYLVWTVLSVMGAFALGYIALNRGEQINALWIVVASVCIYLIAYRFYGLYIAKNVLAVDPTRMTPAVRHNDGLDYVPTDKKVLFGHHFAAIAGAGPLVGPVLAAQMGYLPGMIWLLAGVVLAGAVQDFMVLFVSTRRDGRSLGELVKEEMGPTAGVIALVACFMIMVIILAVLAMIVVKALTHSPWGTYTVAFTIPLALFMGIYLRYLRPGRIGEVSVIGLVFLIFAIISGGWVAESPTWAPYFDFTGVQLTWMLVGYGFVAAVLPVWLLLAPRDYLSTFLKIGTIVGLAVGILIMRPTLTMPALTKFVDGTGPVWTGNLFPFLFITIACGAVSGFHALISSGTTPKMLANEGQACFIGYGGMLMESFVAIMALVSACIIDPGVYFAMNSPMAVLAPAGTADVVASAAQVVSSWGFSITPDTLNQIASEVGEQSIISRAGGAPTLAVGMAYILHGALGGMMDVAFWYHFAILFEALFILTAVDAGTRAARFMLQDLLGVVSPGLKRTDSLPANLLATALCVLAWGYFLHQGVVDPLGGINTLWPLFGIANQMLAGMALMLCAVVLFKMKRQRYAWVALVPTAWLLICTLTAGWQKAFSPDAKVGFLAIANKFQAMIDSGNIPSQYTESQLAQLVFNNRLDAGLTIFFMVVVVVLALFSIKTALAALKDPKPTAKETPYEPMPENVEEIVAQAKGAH
UniProt P0AFK9: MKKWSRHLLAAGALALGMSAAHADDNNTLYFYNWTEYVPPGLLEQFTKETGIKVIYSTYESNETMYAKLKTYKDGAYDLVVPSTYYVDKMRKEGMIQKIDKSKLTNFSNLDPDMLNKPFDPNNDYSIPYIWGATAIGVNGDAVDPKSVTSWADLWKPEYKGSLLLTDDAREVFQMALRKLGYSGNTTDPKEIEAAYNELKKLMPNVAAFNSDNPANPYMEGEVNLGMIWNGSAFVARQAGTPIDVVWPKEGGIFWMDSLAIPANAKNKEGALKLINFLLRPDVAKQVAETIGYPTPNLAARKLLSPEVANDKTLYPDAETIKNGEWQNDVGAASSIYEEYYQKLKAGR
UniProt P0DSF4: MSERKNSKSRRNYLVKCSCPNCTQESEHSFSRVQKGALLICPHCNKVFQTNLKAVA
UniProt P0AGH1: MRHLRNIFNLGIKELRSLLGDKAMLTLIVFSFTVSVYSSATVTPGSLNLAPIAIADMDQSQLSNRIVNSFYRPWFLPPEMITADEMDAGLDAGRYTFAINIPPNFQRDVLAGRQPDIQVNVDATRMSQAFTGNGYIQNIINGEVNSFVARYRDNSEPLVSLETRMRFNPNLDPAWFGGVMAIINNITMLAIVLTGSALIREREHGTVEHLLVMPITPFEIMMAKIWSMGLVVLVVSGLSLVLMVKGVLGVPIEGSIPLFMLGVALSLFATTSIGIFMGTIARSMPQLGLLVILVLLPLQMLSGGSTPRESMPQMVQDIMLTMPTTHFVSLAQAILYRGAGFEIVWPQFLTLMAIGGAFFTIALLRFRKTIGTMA
UniProt P0AFW8: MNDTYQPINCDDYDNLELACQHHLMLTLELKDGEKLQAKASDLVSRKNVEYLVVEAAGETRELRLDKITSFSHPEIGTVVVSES
UniProt P13669: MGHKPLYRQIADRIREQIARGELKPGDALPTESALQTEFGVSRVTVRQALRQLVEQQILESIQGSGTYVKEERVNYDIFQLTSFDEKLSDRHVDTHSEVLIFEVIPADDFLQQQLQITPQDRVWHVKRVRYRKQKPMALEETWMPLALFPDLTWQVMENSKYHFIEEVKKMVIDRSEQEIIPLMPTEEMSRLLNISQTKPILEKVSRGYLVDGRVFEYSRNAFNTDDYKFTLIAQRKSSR
UniProt P15286: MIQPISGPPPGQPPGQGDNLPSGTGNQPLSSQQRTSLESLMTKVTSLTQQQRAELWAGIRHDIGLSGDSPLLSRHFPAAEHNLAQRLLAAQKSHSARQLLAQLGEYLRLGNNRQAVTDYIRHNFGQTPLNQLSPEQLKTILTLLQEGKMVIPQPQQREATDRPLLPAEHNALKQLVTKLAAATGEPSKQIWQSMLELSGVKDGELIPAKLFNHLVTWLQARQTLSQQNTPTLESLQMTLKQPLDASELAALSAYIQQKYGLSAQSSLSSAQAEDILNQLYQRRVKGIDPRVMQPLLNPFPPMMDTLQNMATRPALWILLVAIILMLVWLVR
UniProt P15028: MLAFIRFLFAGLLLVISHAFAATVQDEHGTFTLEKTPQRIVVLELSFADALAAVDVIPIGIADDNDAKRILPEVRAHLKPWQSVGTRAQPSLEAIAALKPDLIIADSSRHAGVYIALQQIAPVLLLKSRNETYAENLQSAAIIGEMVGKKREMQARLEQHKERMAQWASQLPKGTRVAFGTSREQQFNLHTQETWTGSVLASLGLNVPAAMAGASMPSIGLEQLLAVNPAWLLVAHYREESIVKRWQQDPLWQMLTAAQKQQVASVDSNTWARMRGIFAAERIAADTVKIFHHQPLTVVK

The entries are a selection whose mix differs from that of the whole data set. Small differences around the control level are noise.
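Also: lysate desalted by size exclusion to strip endogenous ATP, peptide intensities built from DIA-NN precursor signals, and peptides missing any value discarded before comparison.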

Compound in this assay: Nc1ncnc2c1ncn2[C@@H]1O[C@H](COP(=O)(O)OP(=O)(O)OP(=O)(O)O)[C@@H](O)[C@H]1O [adenosine 5'-triphosphate]
Briefly: log2 fold change of tryptic peptide abundance, ligand vs vehicle (limited proteolysis) (log2 ratio); higher = more trypsin-susceptible (destabilized). As to conditions: ligand concentration: 5 mM; sample: E. coli desalted lysate; replicate design: treated before aliquoting. The procedure:
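HT-PELSA: desalted E. coli K-12 BW25113 lysate (with 12 mM MgCl2) incubated with 5 mM ATP (pH 7) or water for 30 min at 25 C, then a 4 min trypsin pulse at 22 C. Peptides were quantified by DIA-MS (4 replicates). Value is the peptide log2 fold change (treated/control); negative = stabilized. Scale: negative = ligand-stabilized region.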
Take “UniProt P10903 (peptide sequence: VKAEGGSDER, peptide start residue: 385)”: the log2 fold change is -0.243.
In the case of “UniProt P15078 (peptide sequence: HNDGLDYVPTDKK, peptide start residue: 74)” it was -0.231; in that of “UniProt P0AFK9 (peptide sequence: LINFLLRPDVAK, peptide start residue: 274)”, 0.585.
For “UniProt P0DSF4 (peptide sequence: GALLICPHCNK, peptide start residue: 36)” the value was 0.34; for “UniProt P0AGH1 (peptide sequence: DVLAGRQPDIQVNVDATR, peptide start residue: 108)”, -0.132; for “UniProt P0CF40 (peptide sequence: KTMENELLK, peptide start residue: 90)”, -0.682.
For “UniProt P0AFW8 (peptide sequence: KNVEYLVVEAAGETR, peptide start residue: 47)” the value was -0.362.
Regarding “UniProt P13669 (peptide sequence: IREQIAR, peptide start residue: 14)”, the log2 fold change is -0.556.
In the case of “UniProt P15286 (peptide sequence: TILTLLQEGK, peptide start residue: 139)” it was 0.253.
In the case of “UniProt P15028 (peptide sequence: EESIVKR, peptide start residue: 239)” it was 0.248.
